{
  "source": "the supplement of paper PMC8728848",
  "test_in_all_cases": "glycan array binding signal (z-score within array); higher = stronger binding",
  "conditions_in_all_cases": "glycan notation: IUPAC condensed, linker removed",
  "key": {"[1]": {"target": "GalNAc3S(b1-4)[Fuc(a1-3)]GlcNAc", "outline": "(§1)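 Negative Z-scores can be read as non-binding. The Z-score is calculated within each array and then averaged across arrays of one protein sequence at different concentrations or buffers and across linkers. Arrays, 3228 in all, were curated from the Consortium for Functional Glycomics database and kept only where the protein sequence was available.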"}, "GalNAc4S6S(b1-4)GlcNAc": {"target": "GalNAc4S6S(b1-4)GlcNAc", "outline": "as §1"}, "GalNAc6S(b1-4)GlcNAc": {"target": "GalNAc6S(b1-4)GlcNAc", "outline": "as §1"}, "Glc(a1-4)Glc": {"target": "Glc(a1-4)Glc", "outline": "as §1"}, "[2]": {"target": "Glc(a1-4)Glc(a1-4)Glc(a1-4)Glc", "outline": "as §1"}, "Glc(a1-6)Glc(a1-6)Glc": {"target": "Glc(a1-6)Glc(a1-6)Glc", "outline": "as §1"}, "[3]": {"target": "Glc(a1-6)Glc(a1-6)Glc(a1-6)Glc", "outline": "as §1"}, "Glc(b1-4)Glc": {"target": "Glc(b1-4)Glc", "outline": "as §1"}, "Glc(b1-6)Glc": {"target": "Glc(b1-6)Glc", "outline": "as §1"}, "GlcA(b1-3)Gal": {"target": "GlcA(b1-3)Gal", "outline": "as §1"}, "GlcA(b1-3)GlcNAc": {"target": "GlcA(b1-3)GlcNAc", "outline": "as §1"}, "GlcA(b1-6)Gal": {"target": "GlcA(b1-6)Gal", "outline": "as §1"}, "[4]": {"target": "GlcA3S(b1-3)Gal(b1-4)GlcNAc(b1-2)Man", "outline": "as §1"}, "[5]": {"target": "GlcA3S(b1-3)Gal(b1-4)GlcNAc(b1-3)Gal(b1-4)Glc", "outline": "as §1"}, "[6]": {"target": "GlcNAc(a1-3)Gal(b1-4)GlcNAc", "outline": "as §1"}, "[7]": {"target": "GlcNAc(a1-4)Gal(b1-3)GlcNAc", "outline": "as §1"}, "[8]": {"target": "GlcNAc(a1-4)Gal(b1-4)GalNAc", "outline": "as §1"}, "[9]": {"target": "GlcNAc(a1-4)Gal(b1-4)GlcNAc", "outline": "as §1"}, "[10]": {"target": "GlcNAc(a1-4)Gal(b1-4)GlcNAc(b1-3)Gal(b1-4)Glc", "outline": "as §1"}, "[11]": {"target": "GlcNAc(a1-4)Gal(b1-4)GlcNAc(b1-3)Gal(b1-4)GlcNAc", "outline": "as §1"}, "[12]": {"target": "GlcNAc(a1-4)Gal(b1-4)GlcNAc(b1-3)Gal(b1-4)GlcNAc(b1-3)Gal(b1-4)GlcNAc", "outline": "as §1"}, "[13]": {"target": "GlcNAc(a1-4)Gal(b1-4)GlcNAc(b1-3)Gal(b1-4)[Fuc(a1-3)]GlcNAc(b1-3)Gal(b1-4)[Fuc(a1-3)]GlcNAc", "outline": "as §1"}, "[14]": {"target": "GlcNAc(a1-6)Gal(b1-4)GlcNAc", "outline": "as §1"}, "[15]": {"target": "GlcNAc(b1-2)Gal(b1-3)GalNAc", "outline": "as §1"}, "[16]": {"target": "GlcNAc(b1-2)Man(a1-3)[GlcNAc(b1-2)Man(a1-6)]Man(b1-4)GlcNAc(b1-4)GlcNAc", "outline": "as §1"}, "[17]": {"target": "GlcNAc(b1-2)Man(a1-3)[GlcNAc(b1-2)Man(a1-6)]Man(b1-4)GlcNAc(b1-4)[Fuc(a1-6)]GlcNAc", "outline": "as §1"}, "[18]": {"target": "GlcNAc(b1-2)Man(a1-3)[GlcNAc(b1-4)][GlcNAc(b1-2)Man(a1-6)]Man(b1-4)GlcNAc(b1-4)GlcNAc", "outline": "as §1"}, "[19]": {"target": "GlcNAc(b1-2)Man(a1-3)[GlcNAc(b1-4)][GlcNAc(b1-2)Man(a1-6)]Man(b1-4)GlcNAc(b1-4)[Fuc(a1-6)]GlcNAc", "outline": "as §1"}, "[20]": {"target": "GlcNAc(b1-2)[GlcNAc(b1-4)]Man(a1-3)[GlcNAc(b1-2)Man(a1-6)]Man(b1-4)GlcNAc(b1-4)GlcNAc", "outline": "as §1"}, "[21]": {"target": "GlcNAc(b1-2)[GlcNAc(b1-4)]Man(a1-3)[GlcNAc(b1-4)][GlcNAc(b1-2)Man(a1-6)]Man(b1-4)GlcNAc(b1-4)GlcNAc", "outline": "as §1"}, "[22]": {"target": "GlcNAc(b1-2)[GlcNAc(b1-4)]Man(a1-3)[GlcNAc(b1-4)][GlcNAc(b1-2)[GlcNAc(b1-6)]Man(a1-6)]Man(b1-4)GlcNAc(b1-4)GlcNAc", "outline": "as §1"}, "[23]": {"target": "GlcNAc(b1-2)[GlcNAc(b1-4)]Man(a1-3)[GlcNAc(b1-4)][GlcNAc(b1-2)[GlcNAc(b1-6)]Man(a1-6)]Man(b1-4)GlcNAc(b1-4)[Fuc(a1-6)]GlcNAc", "outline": "as §1"}, "[24]": {"target": "GlcNAc(b1-2)[GlcNAc(b1-6)]Man(a1-6)[GlcNAc(b1-2)Man(a1-3)]Man(b1-4)GlcNAc(b1-4)GlcNAc", "outline": "as §1"}, "[25]": {"target": "GlcNAc(b1-2)[GlcNAc(b1-6)]Man(a1-6)[GlcNAc(b1-2)Man(a1-3)]Man(b1-4)GlcNAc(b1-4)[Fuc(a1-6)]GlcNAc", "outline": "as §1"}, "[26]": {"target": "GlcNAc(b1-2)[GlcNAc(b1-6)]Man(a1-6)[GlcNAc(b1-4)][GlcNAc(b1-2)Man(a1-3)]Man(b1-4)GlcNAc(b1-4)GlcNAc", "outline": "as §1"}, "GlcNAc(b1-3)Fuc": {"target": "GlcNAc(b1-3)Fuc", "outline": "as §1"}, "GlcNAc(b1-3)Gal": {"target": "GlcNAc(b1-3)Gal", "outline": "as §1"}, "[27]": {"target": "GlcNAc(b1-3)Gal(b1-3)GalNAc", "outline": "as §1"}},
  "note": "Some of the results follow.",
  "data": [
    {"binder": "RobpsCRA (Robinia pseudoacacia) (protein) IKGGYWYSGSGLAVSDINPSHFTHLFCAFADLDPNTNKLTISSSNAAAFSTFTQTVRAKNPSVKTLLSIGGGGGRALAAVFANMASQASRRKSFIDSSIQLARRNNFHGLDLDWEYPSSDIDKTNFASLIREWRAAVATESSTSGTPALLLSAAVGGSDQITPLKYYPGEAIANNLDWVNVMTYDLYTSDSYPTLTQPPAPLFYPRGIFSADEGITKWIQSGVPESKLALGLPFYGFKWRLSDPNNHGLFAPATQGLGAVKYKDIVNTGGQVEFDSTYVTNYCFKGTDWYGYDDTQSISAKVAYAKQRGLFGYFAWHIEQDSNWALS", "values": [
      {"measurement": "glycan array binding signal (z-score)", "setting": "[1]", "result": -0.113},
      {"measurement": "glycan array binding signal (z-score)", "setting": "GalNAc4S6S(b1-4)GlcNAc", "result": -0.31},
      {"measurement": "glycan array binding signal (z-score)", "setting": "GalNAc6S(b1-4)GlcNAc", "result": 0.159},
      {"measurement": "glycan array binding signal (z-score)", "setting": "Glc(a1-4)Glc", "result": -0.419},
      {"measurement": "glycan array binding signal (z-score)", "setting": "[2]", "result": -0.199},
      {"measurement": "glycan array binding signal (z-score)", "setting": "Glc(a1-6)Glc(a1-6)Glc", "result": -0.578},
      {"measurement": "glycan array binding signal (z-score)", "setting": "[3]", "result": -0.603},
      {"measurement": "glycan array binding signal (z-score)", "setting": "Glc(b1-4)Glc", "result": -0.515},
      {"measurement": "glycan array binding signal (z-score)", "setting": "Glc(b1-6)Glc", "result": -0.652},
      {"measurement": "glycan array binding signal (z-score)", "setting": "GlcA(b1-3)Gal", "result": 0.749},
      {"measurement": "glycan array binding signal (z-score)", "setting": "GlcA(b1-3)GlcNAc", "result": -0.082},
      {"measurement": "glycan array binding signal (z-score)", "setting": "GlcA(b1-6)Gal", "result": 0.348},
      {"measurement": "glycan array binding signal (z-score)", "setting": "[4]", "result": -0.142},
      {"measurement": "glycan array binding signal (z-score)", "setting": "[5]", "result": 2.45},
      {"measurement": "glycan array binding signal (z-score)", "setting": "[6]", "result": -0.279},
      {"measurement": "glycan array binding signal (z-score)", "setting": "[7]", "result": -0.431},
      {"measurement": "glycan array binding signal (z-score)", "setting": "[8]", "result": 0.246},
      {"measurement": "glycan array binding signal (z-score)", "setting": "[9]", "result": -0.324},
      {"measurement": "glycan array binding signal (z-score)", "setting": "[10]", "result": -0.307},
      {"measurement": "glycan array binding signal (z-score)", "setting": "[11]", "result": 1.54},
      {"measurement": "glycan array binding signal (z-score)", "setting": "[12]", "result": 1.21},
      {"measurement": "glycan array binding signal (z-score)", "setting": "[13]", "result": 0.964},
      {"measurement": "glycan array binding signal (z-score)", "setting": "[14]", "result": 0.412},
      {"measurement": "glycan array binding signal (z-score)", "setting": "[15]", "result": 0.183},
      {"measurement": "glycan array binding signal (z-score)", "setting": "[16]", "result": -0.152},
      {"measurement": "glycan array binding signal (z-score)", "setting": "[17]", "result": -0.299},
      {"measurement": "glycan array binding signal (z-score)", "setting": "[18]", "result": -0.359},
      {"measurement": "glycan array binding signal (z-score)", "setting": "[19]", "result": -0.721},
      {"measurement": "glycan array binding signal (z-score)", "setting": "[20]", "result": 0.427},
      {"measurement": "glycan array binding signal (z-score)", "setting": "[21]", "result": -0.505},
      {"measurement": "glycan array binding signal (z-score)", "setting": "[22]", "result": -0.105},
      {"measurement": "glycan array binding signal (z-score)", "setting": "[23]", "result": 0.837},
      {"measurement": "glycan array binding signal (z-score)", "setting": "[24]", "result": 0.227},
      {"measurement": "glycan array binding signal (z-score)", "setting": "[25]", "result": -0.106},
      {"measurement": "glycan array binding signal (z-score)", "setting": "[26]", "result": -0.019},
      {"measurement": "glycan array binding signal (z-score)", "setting": "GlcNAc(b1-3)Fuc", "result": -0.426},
      {"measurement": "glycan array binding signal (z-score)", "setting": "GlcNAc(b1-3)Gal", "result": 0.331},
      {"measurement": "glycan array binding signal (z-score)", "setting": "[27]", "result": 0.17}
    ]}
  ]
}
